Measured values as given in US8053634B2, “Stabilization and blueing of anthocyanin pigments using gene encoding aromatic acyltransferase capable of transferring an aromatic acyl group to the 3′-position of anthocyanin” (Suntory Holdings Limited, priority 2004, dated 2011).

Test: Flower color simulation: purified pigment in juice squeezed from rose petals (cv. Medeo)
Type: physicochemical
Details: from L*a*b* value converted from transmission spectrum
Experimental: In order to simulate the flower color when the gene for gentian anthocyanin 5,3′-acyltransferase was introduced into roses and DEL 3G-5CafG-3′CafG was accumulated in rose petals, the color development of a purified pigment suspended in juice squeezed form rose petals (cv. Medeo) was measured. As for purified pigments, DEL 3G-5CafG-3′CafG, and as a comparative control, DEL 3G-5G, cyanidin 3,5-diglucoside (CYA 3G-5G), pelargonidin 3,5-diglucoside (PEL 3G-5G) and malvidin 3,5-diglucoside (MAL 3G-5G) were used. About 20 g of Medeo petals frozen at −80° C. for more than one hour were squeezed by a garlic squeezer for household use, and centrifuged at 1000 rpm for 1 minute to remove the debris of the petals, and the supernatant was prepared as the squeezed juice.
Twenty μl of 50 mM DMSO solution of purified pigment was added to 1 ml of the squeezed juice, and kept for 10 minutes, and the absorption and transmittance spectra at 380-780 nm were measured with a spectrophotometer UV-2500PC(SHIMADZU Corporation). The transmittance spectrum values were converted into CIE L*a*b* color system (JISZ8729). […] However, since the absorbance for 3G-5CafG-3′CafG was too high, it was diluted 4-fold prior to measurement.

SMILES: O=C(/C=C/c1ccc(O)c(O)c1)OC[C@H]1O[C@@H](Oc2cc(-c3[o+]c4cc(O)cc(O[C@@H]5O[C@H](COC(=O)/C=C/c6ccc(O)c(O)c6)[C@@H](O)[C@H](O)[C@H]5O)c4cc3O[C@@H]3O[C@H](CO)[C@@H](O)[C@H](O)[C@H]3O)cc(O)c2O)[C@H](O)[C@@H](O)[C@@H]1O [DEL 3G-5CafG-3′CafG, gentiodelphin]
- approximate color, Royal Horticultural Society color chart (RHSCC) number: 89A
